# Experimental data taken from PubChem BioAssay (NCATS).
# The other results are listed elsewhere or left out. These are further read-outs of the screen, such as a control signal, another cell line or another target. No call is given for them. Most of these compounds were active or inconclusive in the main read-out, so they are no random draw. For part of these data: Words in brackets tell the shape of the fitted curve; partial curves, single points and poor fits give uncertain potencies.
# Legend:
# [1] = qHTS for identification of novel therapeutic agents for treatment of microphthalmiaassociated transcription factor (MiT) renal cell carcinoma (RCC) (AID 1963991); conditions: CellTiter-Glo, 48 h; for z-score: stronger effect = lower value
# Outline: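 Viability of three TFE3-fusion renal carcinoma lines measured by CellTiter-Glo after 48 h treatment with each of 1912 compounds at 11 concentrations. Responses scaled between DMSO (100%) and empty wells (0%) before curve fitting.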
# [2] = qHTS assay for small molecule antagonists of peroxisome proliferator-activated receptor delta signaling (AID 588535); conditions: HEK293T PPARd-UAS-bla, beta-lactamase FRET ratio, 18 h; 460 nm channel;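 also: cells co-treated with a PPAR-delta agonist as stimulator during compound exposure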
# Outline: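 Antagonist-mode beta-lactamase reporter (GeneBLAzer PPAR-delta-UAS-bla) in HEK293T cells, 2% charcoal/dextran FBS, 4000 cells/well. Compound titrations, 18 h at 37 C; CCF4 ratio read, IC50 and efficacy from Hill fits.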
# [3] = qHTS assay for small molecule antagonists of peroxisome proliferator-activated receptor gamma signaling (AID 588537); conditions: HEK293 PPARg-UAS-bla, beta-lactamase ratio, antagonist mode; measured here: W460 blue channel
# Outline: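 PPARγ-UAS-bla HEK293 cells (3000/well) in 1% charcoal/dextran-stripped FBS are treated with compound, then stimulated with 50 nM rosiglitazone for 16 h at 37 °C. Read-out is CCF4 β-lactamase fluorescence after 2 h at RT. IC50 comes from Hill fits normalised to rosiglitazone and DMSO.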
# [4] = qHTS Assay for Modulators of Human Peripheral Myelin Protein 22 (PMP22) Expression/Activity (AID 1967); conditions: Cell-based PMP22 reporter, dual-color luciferase ratio
# Outline: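 Mouse MSC80 Schwann line, Pmp22 promoter–CBG68 reporter, EF-alpha–CBR internal control. 24h compound exposure, 37 °C/5% CO2, DMEM + 10% FBS. Readout: corrected green/red luminescence ratio, normalized to untreated cells; concentration-response curves fitted and classified.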
# [5] = S16 Schwann cell PMP22 intronic element beta-lactamase assay (AID 624044); conditions: S16 rat Schwann cells, PMP22 element beta-lactamase FRET, 24 h; measured here: 460 nm blue channel
# Outline: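 Rat S16 Schwann cells with beta-Lac driven by a PMP22 intronic element, compound-treated 24 h at 37 °C. LiveBLAzer FRET B/G read: 460 nm normalized to potassium clavulanate vs DMSO; 535 nm FRET as viability; concentration-effect curves classified.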
# [6] = qHTS Validation Assay to Find Inhibitors of Chronic Active B-Cell Receptor Signaling (AID 485345); conditions: ABC-DLBCL cells, chronic BCR signaling reporter
# Outline: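 TMD8 ABC-DLBCL cells stably carrying doxycycline-inducible IkappaBalpha–green luciferase fusion plus unfused red luciferase; compounds 46 uM to 3 nM, 4 h at 37C with doxycycline. Corrected green/red luminescence ratio normalized to 10 uM MG-132 and basal cell wells; curves fitted.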
# [7] = qHTS assay for small molecule agonists of retinoid X receptor alpha signaling (AID 588544); conditions: HEK293T RXRa-UAS-bla, beta-lactamase reporter, 18 h; 530 nm emission
# [8] = qHTS assay for small molecule antagonists of retinoid X receptor alpha signaling (AID 588546); conditions: HEK293T RXRa-UAS-bla, beta-lactamase ratio, antagonist mode; measured here: W530 green channel, cytotoxicity proxy;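 also: cells stimulated with 9-cis-retinoic acid as agonist; % is scaled to controls: 0 for no effect and ±100 for the full control effect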
# Outline: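 Beta-lactamase reporter inhibition, read as CCF4 fluorescence ratio (ex 405, em 460/530 nm) after 2 h at RT. HEK293T UAS-bla cells, 2500/well, were stimulated with 9-cis-RA at 500 or 100 nM final alongside test compound for 18 h at 37 C.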
# [9] = qHTS Assay for Inhibitors of PDE-IV (AID 607); conditions: HEK293 ACTOne CNG channel cells, membrane potential fluorescence; measured here: parental cell counter-screen
# Outline: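 Live HEK293 cells with a modified cyclic nucleotide-gated (CNG) channel report intracellular cAMP via membrane-potential dye fluorescence (ex 535/em 590 nm). Endogenous PDE-IV was targeted. Compounds were tested at up to 22.9 uM final; RO 20-1724 100 uM served as control.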
# [10] = TFE3-RCC UOK109 viability, measured here: UOK109 Z-AUC
# [11] = TFE3-RCC viability, measured here: UOK124 Z-AUC
# [12] = TFE3-RCC viability, measured here: UOK124 cell viability
# [13] = TFE3-RCC viability, measured here: UOK145 Z-AUC
# [14] = TFE3-RCC viability, measured here: UOK145 cell viability
# [15] = measured here: red reporter channel AC50, EF-alpha promoter control reporter in MSC80 mouse Schwann cells
# [16] = measured here: CBR control luciferase (viability counter)
structure (smiles),measurement,setting,value
CC1(C)OC2=C(C(=O)c3ccccc3C2=O)[C@H](NCc2ccccc2)[C@H]1O,z-score,[1]; [10],-0.725
same,z-score,[1]; [11],-1.32
same,AC50,[1]; [12],"2.64 µM [falling, full curve]"
same,z-score,[1]; [13],-0.449
same,AC50,[1]; [14],"6.62 µM [falling, full curve]"
Cc1cn([C@H]2C[C@H](N=[N+]=[N-])[C@@H](CO)O2)c(=O)[nH]c1=O,max response,[2],46.8%
same,AC50,[3],"0.00112 µM [falling, full curve, poor fit]"
same,z-score,[1]; [10],0.362
same,z-score,[1]; [11],0.333
same,z-score,[1]; [13],0.292
same,AC50,[1]; [14],"20.9 µM [falling, partial curve]"
Cc1ccc(N(CC2=NCCN2)c2cccc(O)c2)cc1,AC50,[4]; [15],"67.5 µM [falling, partial curve, poor fit]"
same,z-score,[1]; [10],0.535
same,z-score,[1]; [11],0.907
same,AC50,[1]; [12],"18.7 µM [falling, partial curve]"
same,z-score,[1]; [13],-0.252
CC(C=CC=C(C)C=CC1=C(C)CCCC1(C)C)=CC=CC=C(C)C=CC=C(C)C=CC1=C(C)CCCC1(C)C,z-score,[1]; [10],1.01
same,z-score,[1]; [11],-0.043
same,AC50,[1]; [12],"16.6 µM [falling, partial curve, poor fit]"
same,z-score,[1]; [13],0.563
same,AC50,[1]; [14],"20.9 µM [falling, partial curve, poor fit]"
CCCc1nc(C)c2c(=O)[nH]c(-c3cc(S(=O)(=O)N4CCN(CC)CC4)ccc3OCC)nn12,AC50,[5],"1.78 µM [falling, full curve, poor fit]"
same,z-score,[1]; [10],0.392
same,z-score,[1]; [11],0.0313
same,AC50,[1]; [12],"18.7 µM [falling, partial curve]"
same,z-score,[1]; [13],-0.252
same,AC50,[1]; [14],"23.5 µM [falling, partial curve]"
O=c1c2ccccc2nc2n1CCc1c-2[nH]c2ccccc12,AC50,[4]; [15],"75.7 µM [falling, single point]"
same,AC50,[6]; [16],"5.8 µM [falling, partial curve]"
same,z-score,[1]; [10],0.031
same,z-score,[1]; [11],0.265
same,AC50,[1]; [12],"33.2 µM [falling, single point]"
same,z-score,[1]; [13],-0.0445
CCOC(=O)C1=C[C@]2(CC)CCCN3CCc4c(n1c1ccccc41)[C@@H]32,AC50,"[4]; measured here: green reporter channel AC50, mouse Pmp22 promoter in mouse Schwann cells","67.5 µM [falling, partial curve]"
same,AC50,[4]; [15],"75.7 µM [falling, partial curve]"
same,AC50,[6]; measured here: CBG/CBR ratio read-out,"18.4 µM [falling, partial curve]"
same,z-score,[1]; [10],-0.964
same,z-score,[1]; [11],-0.121
same,AC50,[1]; [12],"16.6 µM [falling, partial curve]"
same,z-score,[1]; [13],-0.264
same,AC50,[1]; [14],"33.2 µM [falling, single point]"
Nc1nc(N)c2nc(CNc3ccc(C(=O)NC(CCC(=O)O)C(=O)O)cc3)cnc2n1 (stereo unspecified),max response,[7],20.6%
same,max response,[8],34%
same,z-score,[1]; [10],-0.362
same,z-score,[1]; [11],-3.21
same,AC50,[1]; [12],"0.0372 µM [falling, full curve]"
same,z-score,[1]; [13],-3
same,AC50,[1]; [14],"0.0372 µM [falling, full curve]"
CC(=O)ON=C1C(c2c(O)[nH]c3cc(Br)ccc23)=Nc2ccccc21,z-score,[1]; [10],-1.1
same,z-score,[1]; [11],-0.398
same,AC50,[1]; [12],"3.72 µM [falling, full curve]"
same,z-score,[1]; [13],0.0432
same,AC50,[1]; [14],"4.18 µM [falling, full curve]"
COc1cc2nc(N3CCN(C(=O)C4CCCO4)CC3)nc(N)c2cc1OC (stereo unspecified),AC50,[6]; [16],"25.9 µM [rising, single point]"
same,z-score,[1]; [10],-0.403
same,z-score,[1]; [11],0.223
same,z-score,[1]; [13],0.0983
same,AC50,[1]; [14],"20.9 µM [falling, single point]"
N#Cc1ccc(COC[C@H]2O[C@@H](n3c(NCc4ccc(Cl)c(Cl)c4)nc4c(N)ncnc43)[C@@H](O)[C@@H]2O)cc1,z-score,[1]; [10],0.483
same,z-score,[1]; [11],-2.11
same,AC50,[1]; [12],"0.118 µM [falling, full curve]"
same,z-score,[1]; [13],0.403
same,AC50,[1]; [14],"7.43 µM [falling, partial curve]"
Cc1noc(NS(=O)(=O)c2ccc(N)cc2)c1C,AC50,[3],"70.8 µM [rising, single point]"
same,max response,[7],-9.86%
same,z-score,[1]; [10],1.26
same,z-score,[1]; [11],0.608
same,z-score,[1]; [13],0.172
same,AC50,[1]; [14],"0.0105 µM [rising, full curve]"
CS(=O)c1ccc(-c2nc(-c3ccc(F)cc3)c(-c3ccncc3)[nH]2)cc1 (stereo unspecified),AC50,[9],"15.8 µM [falling, partial curve]"
same,z-score,[1]; [10],0.2
same,z-score,[1]; [11],1.18
same,AC50,[1]; [12],"34 µM [falling, partial curve]"
same,z-score,[1]; [13],-0.174
same,AC50,[1]; [14],"48.1 µM [falling, single point]"

# Not a retest: entries from further up.
structure (smiles),measurement,setting,value
Nc1nc(N)c2nc(CNc3ccc(C(=O)NC(CCC(=O)O)C(=O)O)cc3)cnc2n1 (stereo unspecified),z-score,[1]; [11],-3.21
same,AC50,[1]; [12],"0.0372 µM [falling, full curve]"
same,z-score,[1]; [13],-3
